# Some of the results follow.
# The chains behind the UniProt entries cited, without tags or fusion partners.
# UniProt Q0JBA9, entry or part of it: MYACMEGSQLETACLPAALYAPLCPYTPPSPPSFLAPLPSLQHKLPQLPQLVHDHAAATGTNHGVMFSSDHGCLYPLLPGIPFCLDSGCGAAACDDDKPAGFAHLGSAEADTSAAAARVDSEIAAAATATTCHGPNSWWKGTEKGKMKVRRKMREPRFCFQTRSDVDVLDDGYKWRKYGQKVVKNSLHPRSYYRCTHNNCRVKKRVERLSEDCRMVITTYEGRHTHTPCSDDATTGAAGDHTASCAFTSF
# Target: OsWRKY34 (Oryza sativa, UniProt Q0JBA9 1-250)
# Test: protein-binding microarray (RPBM); PBS, 2% BSA, 51.3 ng/ul salmon testes DNA, 50 uM zinc acetate, 200 nM TF, 25 C, 1 h; high values mean tight binding
# Conditions: protein: recombinant; tags: N-terminal polyhistidine and DsRed monomer fusion (pET32a); label: CyDye5-dUTP incorporated in the synthesized complementary strand; 3' TTTTT single-stranded linker to array surface; dsDNA, one strand shown
# How it was run: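 An Axon 4000B scanner gave the binding signal as per-feature fluorescence intensity in arbitrary units. This followed washing of a custom Agilent array that had been incubated for 1 h at 25 °C with 200 nM protein in PBS, 2% BSA, salmon testes DNA and 50 µM zinc acetate. The proteins were transcription factors fused at the N-terminus to polyhistidine and DsRed, expressed in E. coli BL21-CodonPlus and purified on Ni–NTA.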
row,Sequence,binding signal
1,GTGATGTCTCTTCAACCATACTCCCAGTCCCATAAAAAAACGGAGTCACCTAGTGCAG,8560 fluorescence intensity (a.u.)
2,TTTGTCCCGAGTCAAACATTAGTATCTTTGACTATCAATTCGGAGTCACCTAGTGCAG,15400 fluorescence intensity (a.u.)
3,GTTTTGCAATCCTCTGTTTTGTACCTGCATTCCTATCGAACGGAGTCACCTAGTGCAG,10000 fluorescence intensity (a.u.)
4,ACAGTTTGTACTTGAGTTTGTATAGTTTGGCCTCCTTTTTCGGAGTCACCTAGTGCAG,12200 fluorescence intensity (a.u.)
5,CTCTCCCATGCCGTCTCAGCTCAGCTGCCTTTAGCTACTACGGAGTCACCTAGTGCAG,12900 fluorescence intensity (a.u.)
6,AATCACTACTATATTTTTCTTGTGTTTTACTGATCTCTATCGGAGTCACCTAGTGCAG,8360 fluorescence intensity (a.u.)
7,TCCTTGTATGAATCCATTGCCTTGCTTCTGCTTGCCCATTCGGAGTCACCTAGTGCAG,8530 fluorescence intensity (a.u.)
8,CCAATGTATATCTTGTTTGCTGTTGTTCTAGCATTTGTAGCGGAGTCACCTAGTGCAG,8120 fluorescence intensity (a.u.)
9,GCCTTATTCTTCATGCCTAACGCAGCCCAGCTCAGCTACGCGGAGTCACCTAGTGCAG,10600 fluorescence intensity (a.u.)
10,TAACAGTTGACACAGGGAGCGGAGGGGCAGCTTGGTCATTCGGAGTCACCTAGTGCAG,8420 fluorescence intensity (a.u.)
11,TGTATGTTATTATCTTTGTTACCCTTACATTACTTCCTTACGGAGTCACCTAGTGCAG,8760 fluorescence intensity (a.u.)
12,TCGGTCGCTGAGTTTTCCCCGTACAGACCATATGTCCCGCCGGAGTCACCTAGTGCAG,9910 fluorescence intensity (a.u.)
13,ATTGCTGCTGGTATTCTTTTCAAGTCTGGGCATTATTTTTCGGAGTCACCTAGTGCAG,10800 fluorescence intensity (a.u.)
14,GTCTCATCAACCACCGCAATTTCAATTTTCTTCACATGTGCGGAGTCACCTAGTGCAG,8450 fluorescence intensity (a.u.)
15,GCGACACCCAAACCCACGGCCCAGATCGCTTGACCCCGTCCGGAGTCACCTAGTGCAG,8620 fluorescence intensity (a.u.)
16,CTCCGTTTCACAGCGCAAGTCATTCTAGCATTTCTCACATCGGAGTCACCTAGTGCAG,9590 fluorescence intensity (a.u.)
17,ACTCAATTATCACCTCATTTTACATATCTTATTAATTTTACGGAGTCACCTAGTGCAG,9040 fluorescence intensity (a.u.)
18,GTCTAGTACATTATCTACTCCAGTGCCTACTACTACTACTCGGAGTCACCTAGTGCAG,10800 fluorescence intensity (a.u.)
19,CCACACCCATCTCCCGGCCATTTCTGCTCGCTCTCTCAGACGGAGTCACCTAGTGCAG,9090 fluorescence intensity (a.u.)
20,ACTTCTTGCTGATCTTCTTGGACTGCTTTTGCACCTTCTTCGGAGTCACCTAGTGCAG,9360 fluorescence intensity (a.u.)
21,AGCTTATTATTATTGTTGTTGTTGTATGATTGACACTAGACGGAGTCACCTAGTGCAG,9940 fluorescence intensity (a.u.)
22,CAACAAAAGCTCCATTACACGTATTTTACAATTGTTTTTCCGGAGTCACCTAGTGCAG,12000 fluorescence intensity (a.u.)
23,GCCAAACGCGCCAGATCCGCGCCTCCTCCACTCACACGCGCGGAGTCACCTAGTGCAG,8910 fluorescence intensity (a.u.)
24,TTATGCGTGACTTGTCTTTTTAATTTTTTTTATAATTTTTCGGAGTCACCTAGTGCAG,8300 fluorescence intensity (a.u.)
25,CGCCTCGTCATCGTCGTCGGCCCGGTTGCCCACCTCTTCACGGAGTCACCTAGTGCAG,8680 fluorescence intensity (a.u.)
26,TGTGTGTGTGTGTGTTGAATCATCCGACATCGTGCTATTACGGAGTCACCTAGTGCAG,12300 fluorescence intensity (a.u.)
27,GCCCCTTTTAGGTATGCTTCCTTACACCTTCATCTTCAACCGGAGTCACCTAGTGCAG,8970 fluorescence intensity (a.u.)

# Quoted at random: 3 records from the list.
row,Sequence,binding signal
13,ATTGCTGCTGGTATTCTTTTCAAGTCTGGGCATTATTTTTCGGAGTCACCTAGTGCAG,10800 fluorescence intensity (a.u.)
14,GTCTCATCAACCACCGCAATTTCAATTTTCTTCACATGTGCGGAGTCACCTAGTGCAG,8450 fluorescence intensity (a.u.)
4,ACAGTTTGTACTTGAGTTTGTATAGTTTGGCCTCCTTTTTCGGAGTCACCTAGTGCAG,12200 fluorescence intensity (a.u.)

# (continued)

row,Sequence,binding signal
1,GTTAGGATTTTTTTTTCTTCCTCTGCTTCTTGGTTTGAACCGGAGTCACCTAGTGCAG,8190 fluorescence intensity (a.u.)
2,GGTTCCGCCGCTGCCGTCTCCATTGTCAATAGCCATCGACCGGAGTCACCTAGTGCAG,10700 fluorescence intensity (a.u.)
3,ATAATTCAGATGATCCTCCATTGACCATTGACCATTGCCCCGGAGTCACCTAGTGCAG,9930 fluorescence intensity (a.u.)
4,GCGGTGTGATGCCGGCACTGTGTCCTTTTCAAACATACACCGGAGTCACCTAGTGCAG,9950 fluorescence intensity (a.u.)
5,CAGCTCCGCACTGCCCCAACATCATTTTCTTGTACTCCATCGGAGTCACCTAGTGCAG,8610 fluorescence intensity (a.u.)
6,CCCTTCCACGCGCCGCCGCCGCCGATTCTTTGCTCCGTTTCGGAGTCACCTAGTGCAG,11200 fluorescence intensity (a.u.)
7,AGTATATTTTTTCGTCAACTTTACTTCAACCATCTTCCCACGGAGTCACCTAGTGCAG,10800 fluorescence intensity (a.u.)
8,AGCCTCCAACTAGTTATTTTTCTTTGAATTTGGCTAGATCCGGAGTCACCTAGTGCAG,8390 fluorescence intensity (a.u.)
9,ATATGCCTTTTTCATTCACTGGTCTCGCTACACATGCCTGCGGAGTCACCTAGTGCAG,8550 fluorescence intensity (a.u.)
10,TTTCGCTCGCCCATTTTTCTGCGTCCCGGCGGCGGTGGGGCGGAGTCACCTAGTGCAG,11200 fluorescence intensity (a.u.)
11,CATTTAAATCGCCATCACTCCGCGCGCTCTCCCATCCATCCGGAGTCACCTAGTGCAG,8870 fluorescence intensity (a.u.)
12,ACTTTATTCTTGCATTATCACACTCCACATAGTACCATTACGGAGTCACCTAGTGCAG,12600 fluorescence intensity (a.u.)
13,GTCTCCTCTTCTAATATTCCTTATTTTTTAATTCCGAATTCGGAGTCACCTAGTGCAG,9140 fluorescence intensity (a.u.)
14,TCTCCTTAAATCCTTTATATGATGCTAGGGTTCGTGTTTTCGGAGTCACCTAGTGCAG,8730 fluorescence intensity (a.u.)
15,GATTTTTGTGCAGTCTATTCGCCAACTTTGTAATTACCCCCGGAGTCACCTAGTGCAG,8130 fluorescence intensity (a.u.)
16,TTTGTGGCAGATCATACTCGCTGGCTACACCACCACCCACCGGAGTCACCTAGTGCAG,10300 fluorescence intensity (a.u.)
17,CGAGATAATCCGTTTTTGTTCCGTATTCAAACTATCCGTACGGAGTCACCTAGTGCAG,9120 fluorescence intensity (a.u.)
18,CTCTCTAATCCATTGCCTCGTTTTTCTCTATAGACTATCTCGGAGTCACCTAGTGCAG,9760 fluorescence intensity (a.u.)
19,TGGATACATGGATGGTTGTGGCTGCTTCTCTTAATTCTTCCGGAGTCACCTAGTGCAG,11600 fluorescence intensity (a.u.)
20,CTAGAGTCTCCTCTTGCTCTCTTCTCGTCCGCCATTGATGCGGAGTCACCTAGTGCAG,8430 fluorescence intensity (a.u.)
21,ATGATATTGACAATGGGTCTATTCCGTTCAGCTGGGCTGTCGGAGTCACCTAGTGCAG,8920 fluorescence intensity (a.u.)
22,AACTTGAGCGTTGACCGCTTTGACTCCTCTTCTTTCTCCACGGAGTCACCTAGTGCAG,24900 fluorescence intensity (a.u.)
23,GCTTTATTATCTACAGTATTTTAAGCTCAACTTTTCGTTTCGGAGTCACCTAGTGCAG,10100 fluorescence intensity (a.u.)
24,ATTTCACATGGCAAGATCCACGATGACTGAATTATCACACCGGAGTCACCTAGTGCAG,8200 fluorescence intensity (a.u.)
25,CTGTGTTTGAAAGGGGCCCTTAGTTATGCCTTTATTAGACCGGAGTCACCTAGTGCAG,8820 fluorescence intensity (a.u.)
26,TCACAATGTAAGACTTTCTAGCACTGCCCACATTCATTTACGGAGTCACCTAGTGCAG,9670 fluorescence intensity (a.u.)
27,TCCCTCAAAATTTTGCTCCATTTACCGTTAGCTCAACGACCGGAGTCACCTAGTGCAG,9480 fluorescence intensity (a.u.)

# From PMC7819943, “Rice protein-binding microarrays: a tool to detect cis-acting elements near promoter regions in rice”
